PubChem BioAssay AID504786, Drosophila RNAi Screening Center, 2011

- Assay: 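Fly genes required for HIF-dependent transcription when hypoxia is mimicked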 (primary screen)
- Cells: Drosophila S2 cells with a stable HIF luciferase reporter
- Reagents: long dsRNA against Drosophila genes, about 0.2 µg dsRNA per well of a 384-well plate
- Time to read-out: three days of knock-down, then 20 h of DFO before reading
- Conditions: desferrioxamine (DFO) at 100 µM, an iron chelator that mimics hypoxia, for 20 h
- Read-out: 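Firefly luciferase driven by the mouse ldh-a hypoxia-response element, measured after 20 h of 100 µM DFO; z-scores per plate, higher means more signal lost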
- Reading the numbers: z-score: higher = stronger loss of HIF reporter signal
The deposit covers about 21,000 reagents; this is an unselected part of those with a known target gene and a result. 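Primary screen; positive scores mean lost reporter signal, so the sign may be inverted from the usual convention.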 Reagents against one gene are numbered here. Names joined by + are all predicted targets of the reagent. No sequences are given here.

target | reagent | z-score, replicate 1 | z-score, replicate 2 | z-score, replicate 3 | z-score, replicate 4
Su(z)12 | 1 | -0.1 | -0.2 | – | –
wol | 1 | -0.3 | 1.3 | – | –
Vhl | 1 | -0.3 | 0.1 | – | –
CG30377 | 1 | -0.5 | -0.6 | – | –
CG30377 | 2 | 0.2 | 0.3 | – | –
Nthl1 | 1 | -0.3 | -0.3 | – | –
CG11041 | 1 | -0.2 | -0.4 | – | –
CalpA | 1 | -0.5 | -0.4 | – | –
GstO3 | 1 | -0.3 | -0.6 | – | –
LpR2 | 1 | -0.3 | -0.1 | – | –
LpR2 | 2 | -0.4 | -0.2 | – | –
LpR2 | 3 | -0.3 | -0.6 | – | –
LpR2 | 4 | 0.5 | -0.5 | – | –
obst-A | 1 | -0.1 | -0.2 | – | –
ninaC | 1 | -0.3 | -0.4 | – | –
CG44098 | 1 | -0.4 | 0.2 | – | –
CG44098 | 2 | -0.3 | -0.4 | – | –
CG12868 | 1 | -0.2 | 0.1 | – | –
Gbp3 | 1 | -0.1 | 0.2 | – | –
CG11134 | 1 | -0.8 | -0.4 | – | –
RunxA | 1 | 0 | 0.1 | – | –
RunxA | 2 | -0.4 | -0.6 | – | –
RunxA | 3 | -0.4 | -0.3 | -0.7 | -0.2
CG33181 | 1 | -0.3 | -0.1 | – | –
CHES-1-like | 1 | -0.3 | -0.2 | – | –
mkg-p + Tpt | 1 | 0.3 | 0.3 | – | –
CG6015 | 1 | 1.7 | 2.7 | – | –
IntS10 | 1 | -0.3 | -0.5 | – | –
CG31787 | 1 | 0.1 | 0.1 | – | –
salt | 1 | -0.2 | -0.3 | – | –
Osi3 | 1 | -0.3 | -0.4 | – | –
Usp47 | 1 | -0.3 | -0.2 | – | –
CG4332 | 1 | -0.4 | -0.6 | – | –
CG14631 | 1 | -0.4 | -0.7 | – | –
CG14631 | 2 | -0.4 | -0.7 | – | –
CG14483 | 1 | -0.1 | 0 | – | –
CG5704 | 1 | -0.3 | -0.3 | – | –
rswl | 1 | -0.3 | -0.1 | – | –
Osi18 | 1 | -0.1 | 0.5 | – | –
CG7568 | 1 | -0.3 | -0.4 | – | –
CG5853 | 1 | -0.3 | -0.4 | – | –
CG5853 | 2 | -0.3 | -0.8 | – | –
CG8353 | 1 | -0.2 | -0.1 | – | –
CG15333 | 1 | -0.3 | -0.8 | – | –
CG15333 | 2 | -0.4 | -0.8 | – | –
CG18131 | 1 | 0.8 | 2.5 | – | –
CG8034 | 1 | -0.2 | 1.1 | – | –
CG32202 | 1 | -0.4 | -0.8 | – | –
Ank2 | 1 | 0 | 0.2 | – | –
Ank2 | 2 | -0.3 | -0.3 | – | –
Ank2 | 3 | -0.1 | 0.2 | – | –
Ank2 | 4 | -0.2 | 0 | – | –
mRF1 | 1 | -0.2 | -0.3 | – | –
defl | 1 | 2 | 1.3 | – | –
CG1288 | 1 | -0.1 | -0.3 | – | –
geko | 1 | -0.4 | -0.1 | – | –
geko | 2 | -0.3 | -0.8 | – | –

6 of these entries in another layout:
| target | reagent | z-score, replicate 1 | z-score, replicate 2 | z-score, replicate 3 | z-score, replicate 4 |
| --- | --- | --- | --- | --- | --- |
| CG18131 | 1 | 0.8 | 2.5 | – | – |
| CG8034 | 1 | -0.2 | 1.1 | – | – |
| CG32202 | 1 | -0.4 | -0.8 | – | – |
| Ank2 | 1 | 0 | 0.2 | – | – |
| Ank2 | 2 | -0.3 | -0.3 | – | – |
| Ank2 | 3 | -0.1 | 0.2 | – | – |
